Data on one molecule can be found in patent publication US20240350522A1, “HYGROMYCIN A FOR TREATMENT OF DISEASES AND INFECTIONS” (FLIGHTPATH BIOSCIENCES, INC., priority 2021, published 2024).

SMILES strings stand for the structures. “And” between values parts separate entries of the source, which are not always exact repeats. Equal values may be shown once. The source gives many values for each of these; only a part stands here.

The test system of experiment [1] is Treponema pallidum pallidum SS14 strain. The experiment is described as follows: T. pallidum susceptibility assay, co-culture with Sf1Ep cells, tp0574 (T47) qPCR after 7 days. As to conditions: replicate wells. The experiment is classed as cell-based.
Experiment [2] has as its system Treponema pallidum pallidum Chicago strain. The experiment is described as follows: Treated treponemes seeded onto no-antibiotic plate, 7 more days, T47 qPCR (treponemicidal activity). To be noted: seeded on no antibiotic plate, replicate wells. Format: cell-based. In general terms: Real-time PCR tracks product formation cycle by cycle.

For the molecule `CC(=O)[C@H]1O[C@@H](Oc2ccc(/C=C(\C)C(=O)N[C@@H]3[C@H](O)[C@@H](O)[C@H]4OCO[C@H]4[C@@H]3O)cc2O)[C@@H](O)[C@@H]1O` [Hyg A, Hygromycin A], the “Mean T47 copies/μL, experimental values” in experiment [1] (Hyg A 0.03 μg/ml) was 1524 copies/μL and 2877 copies/μL and 2662 copies/μL and 2752 copies/μL and 3084 copies/μL and 3282 copies/μL and 3342 copies/μL and 2625 copies/μL; in experiment [1] (Hyg A 0.06 μg/ml), 984 copies/μL and 888 copies/μL and 837 copies/μL and 911 copies/μL; in experiment [1] (Hyg A 1.92 μg/ml) it was 358 copies/μL and 405 copies/μL and 363 copies/μL and 328 copies/μL and 285 copies/μL and 387 copies/μL and 294 copies/μL and 166 copies/μL; in experiment [1] (Hyg A 3.84 μg/ml), 164 copies/μL and 228 copies/μL and 360 copies/μL and 281 copies/μL and 409 copies/μL and 264 copies/μL and 310 copies/μL and 185 copies/μL. Besides, the “Mean T47 copies/μL, Expt. values” in experiment [2] (pre-treated with Hygromycin A 0.03 μg/ml) was 5586 copies/μL and 14839 copies/μL and 19191 copies/μL and 17902 copies/μL; in experiment [2] (pre-treated with Hygromycin A 0.06 μg/ml), 50 copies/μL and 908 copies/μL and 1184 copies/μL and 1573 copies/μL; in experiment [2] (pre-treated with Hygromycin A 0.12 μg/ml) it was 9 copies/μL and 48 copies/μL and 35 copies/μL and 42 copies/μL; in experiment [2] (pre-treated with Hygromycin A 0.24 μg/ml) it was 37 copies/μL and 13 copies/μL and 27 copies/μL and 48 copies/μL; in experiment [2] (pre-treated with Hygromycin A 0.48 μg/ml) it was 43 copies/μL and 37 copies/μL; in experiment [2] (pre-treated with Hygromycin A 0.96 μg/ml), 13 copies/μL and 18 copies/μL and 60 copies/μL. Besides, the “Mean T47 copies/μL, Expt. values” was 13 copies/μL (2×) and 31 copies/μL in experiment [2] (pre-treated with Hygromycin A 1.92 μg/ml); 18 copies/μL and 23 copies/μL and 30 copies/μL in experiment [2] (pre-treated with Hygromycin A 3.84 μg/ml).
